PubChem BioAssay AID1159578 | Peter MacCallum Cancer Centre, 2015
This is an unselected part of about 18,000 reagents. Over the whole deposit, about 1,030 (5.7%) are marked active. 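Inactive calls also include pools with fewer than 3300 nuclei, whose migration was not assessed.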 The raw values are shown without normalisation.

Screen: 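siRNA pools altering how lymphatic endothelial cells close a scratch wound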 (primary screen)
System: human lymphatic endothelial cells
Reagents: siRNA pool against human genes, 40 nM
Timing: 48 h after transfection
Detection: 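High-content imaging of dye-stained cells in a scratch assay measures filled wound area and nuclei per well; duplicate means given as ratio to mock and robust z-score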
Scale: migration robust z-score: higher = faster migration into the scratch; migration relative to mock: higher = more scratch area covered than mock; nuclei per well: higher = more cells in the well
Call rule: 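Pools averaging fewer than 3300 nuclei are never called; remaining pools count as changed when migration robust z lies outside -2 to 2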
Meaning of the calls: active = migration changed; inactive = no migration change, or too few cells

Gene | migration robust z-score | migration class with cell-count check | migration relative to mock | nuclei per well, duplicate mean | Outcome
OR1A1 | -0.08 | migration z between -2 and 2; enough cells | 0.79 | 4602 | inactive
UQCC2 | 0.62 | migration z between -2 and 2; enough cells | 1.04 | 5036 | inactive
CROT | -0.56 | migration z between -2 and 2; enough cells | 0.74 | 6483 | inactive
IMMP2L | 0.44 | migration z between -2 and 2; enough cells | 0.89 | 6076 | inactive
SH2D3C | -0.84 | migration z between -2 and 2; enough cells | 0.67 | 4808 | inactive
SHC2 | -0.53 | migration z between -2 and 2; enough cells | 0.75 | 5076 | inactive
OTX1 | 0.55 | migration z between -2 and 2; enough cells | 0.91 | 5615 | inactive
PDHB | -0.6 | migration z between -2 and 2; enough cells | 0.69 | 4884 | inactive
CILP | -0.16 | migration z between -2 and 2; enough cells | 0.78 | 4672 | inactive
ILRUN | -0.94 | migration z between -2 and 2; enough cells | 0.64 | 3541 | inactive
MUC7 | -0.45 | migration z between -2 and 2; enough cells | 0.77 | 4871 | inactive
TFF3 | 0.99 | migration z between -2 and 2; enough cells | 1.15 | 6606 | inactive
FAH | -0.07 | migration z between -2 and 2; enough cells | 0.86 | 5912 | inactive
ABL1 | -1.42 | migration z between -2 and 2; enough cells | 0.53 | 4565 | inactive
KLHL28 | 0.6 | migration z between -2 and 2; enough cells | 1.04 | 5911 | inactive
TMEFF2 | 0.49 | migration z between -2 and 2; enough cells | 1.02 | 7092 | inactive
RGPD7 (retired record) | -0.12 | migration z between -2 and 2; enough cells | 0.85 | 6820 | inactive
EXOC2 | 1.19 | migration z between -2 and 2; enough cells | 1.19 | 5869 | inactive
BNIP1 | -2.6 | migration z below -2; enough cells | 0.31 | 4278 | active
RWDD3 | 0.68 | migration z between -2 and 2; enough cells | 1.06 | 7300 | inactive
SATB2 | 0.96 | migration z between -2 and 2; enough cells | 1.13 | 5602 | inactive
HSD17B2 | 0.02 | migration z between -2 and 2; enough cells | 0.81 | 5868 | inactive
BSND | 0.44 | migration z between -2 and 2; enough cells | 0.89 | 5192 | inactive
SEC14L1 | -0.57 | migration z between -2 and 2; enough cells | 0.7 | 5726 | inactive
MAP3K20 | -0.13 | migration z between -2 and 2; enough cells | 0.78 | 5812 | inactive
TRIM49B | 1.66 | migration z between -2 and 2; enough cells | 1.12 | 5690 | inactive
COQ9 | 1.11 | migration z between -2 and 2; enough cells | 1.17 | 5527 | inactive
MDC1 | 1.05 | migration z between -2 and 2; enough cells | 1.16 | 5248 | inactive
AMY2A | -0.7 | migration z between -2 and 2; enough cells | 0.67 | 5754 | inactive
AIFM3 | -0.18 | migration z between -2 and 2; enough cells | 0.77 | 4284 | inactive
POMC | -0.55 | migration z between -2 and 2; enough cells | 0.74 | 5737 | inactive
ZNF771 | -1.06 | migration z between -2 and 2; enough cells | 0.61 | 5356 | inactive
ENC1 | 0.49 | migration z between -2 and 2; enough cells | 0.9 | 4546 | inactive
LIMD1 | 1.1 | migration z between -2 and 2; enough cells | 1.17 | 5009 | inactive
GUCY2EP | 0.26 | migration z between -2 and 2; enough cells | 0.86 | 6415 | inactive
ESRRA | 0.18 | migration z between -2 and 2; enough cells | 0.84 | 6041 | inactive

6 entries from above, limited to “migration class with cell-count check”:
KLHL28	migration z between -2 and 2; enough cells
TMEFF2	migration z between -2 and 2; enough cells
RGPD7 (retired record)	migration z between -2 and 2; enough cells
EXOC2	migration z between -2 and 2; enough cells
BNIP1	migration z below -2; enough cells
RWDD3	migration z between -2 and 2; enough cells

The results go on.
Gene | migration robust z-score | migration class with cell-count check | migration relative to mock | nuclei per well, duplicate mean | Outcome
PPEF2 | -1.9 | migration z between -2 and 2; enough cells | 0.44 | 6127 | inactive
PDE9A | 0.86 | migration z between -2 and 2; enough cells | 0.97 | 5448 | inactive
CPD | 0.75 | migration z between -2 and 2; enough cells | 0.95 | 5400 | inactive
SNX31 | 0.46 | migration z between -2 and 2; enough cells | 1 | 5418 | inactive
NUP58 | 1.43 | migration z between -2 and 2; enough cells | 1.26 | 6732 | inactive
SLC18A2 | -0.88 | migration z between -2 and 2; enough cells | 0.64 | 6132 | inactive
IL10RA | 0.75 | migration z between -2 and 2; enough cells | 0.95 | 4430 | inactive
TAFA4 | -0.22 | migration z between -2 and 2; enough cells | 0.82 | 6382 | inactive
OTUD3 | 0.16 | migration z between -2 and 2; enough cells | 0.84 | 4548 | inactive
PBXIP1 | -1.72 | migration z between -2 and 2; enough cells | 0.44 | 7061 | inactive
OR52J3 | -0.96 | migration z between -2 and 2; enough cells | 0.64 | 3658 | inactive
HLA-DMB | 0.2 | migration z between -2 and 2; enough cells | 0.84 | 5058 | inactive
UCMA | -0.96 | migration z between -2 and 2; enough cells | 0.64 | 4464 | inactive
ANXA9 | -1.38 | migration z between -2 and 2; enough cells | 0.54 | 4954 | inactive
SMAD9 | -0.62 | migration z between -2 and 2; enough cells | 0.68 | 3600 | inactive
YPEL2 | 0.66 | migration z between -2 and 2; enough cells | 1.05 | 5226 | inactive
STOML1 | -0.64 | migration z between -2 and 2; enough cells | 0.72 | 4410 | inactive
FBXW2 | -0.34 | migration z between -2 and 2; enough cells | 0.74 | 5874 | inactive
OR5H1 | -0.59 | migration z between -2 and 2; enough cells | 0.73 | 5492 | inactive
BACE1 | -0.62 | migration z between -2 and 2; enough cells | 0.68 | 6064 | inactive
TULP4 | -0.13 | migration z between -2 and 2; enough cells | 0.78 | 5629 | inactive
